In article PMC4786145:
Results are given in words; binding and its absence hold for the method and conditions named. For some assays here: In cells and extracts the contact can be indirect. Some results given as binding are weak or reduced against the parent protein; the word gives no strength.

Chains of the proteins cited; added tags and fusions are not shown.
UniProt Q13526: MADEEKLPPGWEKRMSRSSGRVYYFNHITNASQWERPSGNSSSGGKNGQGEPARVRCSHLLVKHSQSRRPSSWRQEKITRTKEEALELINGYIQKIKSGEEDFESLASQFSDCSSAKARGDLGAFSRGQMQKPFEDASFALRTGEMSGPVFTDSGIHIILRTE
UniProt Q16665: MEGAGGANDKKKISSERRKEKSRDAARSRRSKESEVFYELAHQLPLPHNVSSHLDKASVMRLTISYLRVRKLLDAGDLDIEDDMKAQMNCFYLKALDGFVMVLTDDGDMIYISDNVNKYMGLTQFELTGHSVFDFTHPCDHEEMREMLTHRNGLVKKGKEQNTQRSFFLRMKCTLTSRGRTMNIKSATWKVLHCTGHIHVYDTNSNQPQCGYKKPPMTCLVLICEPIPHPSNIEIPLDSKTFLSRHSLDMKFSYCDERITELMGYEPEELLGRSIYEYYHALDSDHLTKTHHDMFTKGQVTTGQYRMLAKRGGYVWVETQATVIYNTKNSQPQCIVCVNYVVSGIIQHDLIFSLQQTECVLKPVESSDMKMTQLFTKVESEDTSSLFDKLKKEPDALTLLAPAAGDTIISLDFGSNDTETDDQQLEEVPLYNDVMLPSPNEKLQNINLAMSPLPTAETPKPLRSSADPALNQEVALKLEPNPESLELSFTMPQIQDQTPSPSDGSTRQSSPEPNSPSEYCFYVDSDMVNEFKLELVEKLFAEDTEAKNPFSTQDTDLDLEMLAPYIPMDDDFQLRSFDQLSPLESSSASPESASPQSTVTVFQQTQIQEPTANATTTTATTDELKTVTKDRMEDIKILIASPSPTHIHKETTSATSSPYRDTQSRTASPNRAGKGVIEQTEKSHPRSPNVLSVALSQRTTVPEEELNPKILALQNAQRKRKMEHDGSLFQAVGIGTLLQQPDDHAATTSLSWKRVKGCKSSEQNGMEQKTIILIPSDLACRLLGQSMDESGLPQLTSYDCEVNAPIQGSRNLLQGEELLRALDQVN

How the values were obtained:
GST-PIN1 fusion protein [1] = target: GST-PIN1 fusion protein (UniProt Q13526); experiment: pull-down; purified HA-HIF-1α (treated with or without lambda phosphatase, 1 h, 30°C) incubated with GST-PIN1, pulled down with GST beads; immunoblot; both purified
[2] = target: PIN1 (endogenous) (human (endogenous in HCT116)) (UniProt Q13526); experiment: co-IP; endogenous proteins, HCT116 cells under hypoxia 4 h; lysates incubated with normal IgG or anti-PIN1, blot anti-HIF-1α
GST-PIN1 fusion protein [3] = target: GST-PIN1 fusion protein (UniProt Q13526); experiment: pull-down; cell lysates incubated with GST or GST-PIN1 fusion protein, then GST beads; blot with anti-HIF-1α; only the target purified
[4] = target: PIN1 (endogenous) (human (endogenous in HCT116)) (UniProt Q13526); experiment: proximity ligation; Duolink analysis in HCT116 cells under normoxia or hypoxia; also with or without PiB (20 μM); HIF-1α and PIN1 co-labeled with antibodies
Flag-tagged HIF-1α = Flag-tagged HIF-1α (UniProt Q16665); experiment: co-IP; HCT116 cells transfected with Flag-tagged HIF-1α and HA-PIN1, hypoxia 4 h; IP anti-Flag, blot anti-HA

HA-HIF-1α proteins (purified) (from UniProt Q16665 1-826)
binding (GST-PIN1 fusion protein [1]): binds

Hypoxia-Inducible Factor-1α (endogenous) (from UniProt Q16665 1-826)
binding [2]: binds | binding (GST-PIN1 fusion protein [3]): binds | binding [4]: binds

HA-PIN1 (from UniProt Q13526 1-163)
binding (Flag-tagged HIF-1α): binds
